PubChem BioAssay AID652259, Drosophila RNAi Screening Center, 2013
Assay: 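Identify new Wingless signalling regulators in fly cells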 (primary screen). Cell system: Drosophila clone 8 imaginal disc epithelial cells. Reagents: long dsRNA against Drosophila genes. Treatment: pathway stimulated by co-transfected Wingless expression plasmid. Measurement: 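Firefly luciferase from a tcf-site Wingless reporter, measured alongside co-transfected Renilla luciferase that tracks transfection; pathway stimulated by a Wingless plasmid; the firefly-to-Renilla ratio is not deposited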. Direction: firefly reporter light: higher = more Wg reporter light, before normalisation; Renilla control light: higher = more transfected or surviving cells. Hit rule: 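a knock-down is a candidate when at least two out of four statistical tests show it departing from its plate mean; one test alone signals a weak candidate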. Meaning of the calls: active = candidate regulator (raises or lowers reporter); inactive = not a candidate.
The screen tested about 22,000 reagents; shown is a random part of those that have a named target and a result. Over the whole deposit, 233 (1.1%) are marked active. 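Light values are raw, unnormalised plate reads; the ratio scores behind the reporter calls were not deposited.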 Unmarked entries are inactive. A plus sign joins genes that one reagent is predicted to hit. The record does not give: the amount of reagent, the time to read-out, the dose of the treatment.

Gene,DRSC id,"reporter change call, replicate 1","firefly reporter light, replicate 1","firefly reporter light, replicate 2","Renilla control light, replicate 1","Renilla control light, replicate 2"
Cpr62Bc (GeneID 38241),DRSC08545,,9243,,4033,
pdm3 (GeneID 35813),DRSC06076,,4097,9801,1010,3648
pdm3 (GeneID 35813),DRSC06490,,3238,10328,976,3539
pdm3 (GeneID 35813),DRSC22326,,3.83e5,3.52e5,67253,70182
CG12133 (GeneID 36036),DRSC06108,,2164,5868,498,1980
zen2 (GeneID 40827),DRSC12633,,16680,,4177,
CG32551 (GeneID 318085),DRSC19259,,4634,,1716,
Rpt4 (GeneID 31567),DRSC18713,,13814,,6373,
CG6628 (GeneID 39183),DRSC10679,,4509,,1688,
tw (GeneID 31024),DRSC18537,,1593,3446,695,1269
CG15005 (GeneID 38506),DRSC08459,,8929,,4008,
LUBEL (GeneID 33950),DRSC02141,,2118,5425,641,1752
CG10185 (GeneID 41953),DRSC14205,,13893,,3768,
drl (GeneID 44355),DRSC03523,,7532,,2587,
Rab4 (GeneID 36992),DRSC07524,,10817,,2547,
Muc18B (GeneID 32913),DRSC20064,,20925,,12763,
Muc18B (GeneID 32913),DRSC21644,,5.99e5,5.87e5,2.34e5,2.32e5
CG5245 (GeneID 41530),DRSC15750,,16358,,3010,
Ptip (GeneID 39552),DRSC10660,,3868,,1472,
Ptip (GeneID 39552),DRSC11048,,4611,,1111,
Ilp7 (GeneID 31328),DRSC17895,,23642,,14880,
Spn43Ab (GeneID 45040),DRSC06781,,1837,4602,418,2277
RpL21 (GeneID 35453),DRSC03704,,4093,11169,923,2072
Arc2 (GeneID 36597),DRSC06436,,3091,,1297,
CG14106 (GeneID 39506),DRSC10109,,6336,,2626,
Lint-1 + rtv,DRSC19541,,2544,7660,978,2658
REPTOR (GeneID 42930),DRSC14626,,4631,6339,1683,1072
rtp (GeneID 40627),DRSC12132,,4533,,875,
CG10205 (GeneID 36650),DRSC05979,,10344,,2325,
sfl (GeneID 38736),DRSC08828,,2080,,1239,
sfl (GeneID 38736),DRSC08830,,3152,,1122,
babos (GeneID 37557),DRSC03923,,18097,,9495,
babos (GeneID 37557),DRSC04397,,9065,,3027,
Jhbp2 (GeneID 40612),DRSC12292,,19624,,6181,
CG3494 (GeneID 37903),DRSC04375,,2028,5940,640,1890
kat80 (GeneID 32581),DRSC20344,,22579,,10838,
kat80 (GeneID 32581),DRSC20345,,18163,,7341,
CheB38b (GeneID 2768933),DRSC22874,,7.60e5,6.18e5,3.27e5,360
Nprl3 (GeneID 39550),DRSC11044,Wg reporter activity lowered,3513,,1544,
CG5934 (GeneID 43289),DRSC15922,,5237,,3824,
term (GeneID 47208),DRSC21730,,4.12e5,4.80e5,2.27e5,1.80e5
Cka (GeneID 34096),DRSC03476,,3943,8955,1600,4752
Cka (GeneID 34096),DRSC22858,,6.51e5,6.37e5,1.60e5,1.88e5
Muc91C (GeneID 42246),DRSC16297,,17668,,3704,
Muc91C (GeneID 42246),DRSC21696,,8.93e5,9.36e5,5.80e5,4.20e5
Phf7 (GeneID 33015),DRSC20692,,4441,5877,971,2320
CG12531 (GeneID 32986),DRSC19466,,12459,,9401,
PICK1 (GeneID 34677),DRSC01268,,15657,,9853,
PICK1 (GeneID 34677),DRSC02936,,2834,7753,1241,3635
CG30062 (GeneID 246428),DRSC21737,,3.24e5,4.22e5,85435,79934
mdlc (GeneID 42397),DRSC15690,,1904,7360,720,1943
Dpit47 (GeneID 35565),DRSC04985,,1847,6263,567,1673
CG11382 (GeneID 31069),DRSC18624,,14613,,9426,
CG7810 (GeneID 34139),DRSC03072,,8832,,4613,
CG15337 (GeneID 31748),DRSC18020,,23149,,11506,
CG15337 (GeneID 31748),DRSC22778,,5.53e5,5.76e5,2.06e5,97259
l(1)G0196 (GeneID 33137),DRSC20629,,25729,,1179,
U2af38 (GeneID 33201),DRSC00796,,14185,,2381,
CG34235 + CG30058 + CG34312,DRSC22142,,4.31e5,4.81e5,1.82e5,1.96e5
Ca-alpha1T (GeneID 31550),DRSC17842,,14553,,8355,
Ca-alpha1T (GeneID 31550),DRSC18103,,24875,,13841,
Ca-alpha1T (GeneID 31550),DRSC18356,,14598,,5424,
Ca-alpha1T (GeneID 31550),DRSC18357,,15884,,7922,
Ca-alpha1T (GeneID 31550),DRSC21430,,2.70e5,3.63e5,1.44e5,1.37e5
alphaKap4 (GeneID 38675),DRSC09823,,2004,5920,1352,2843
CG14926 (GeneID 34567),DRSC02409,,2520,7717,1104,2513
CycY (GeneID 34593),DRSC02420,,8135,,2531,
CG12464 (GeneID 36516),DRSC06156,,4560,,2071,
GstS1 (GeneID 36927),DRSC07436,,16433,,3245,
CG10462 (GeneID 35260),DRSC02058,,6018,,1341,
SLIRP1 + anox,DRSC20542,,4171,8224,1297,3381
lectin-24A (GeneID 53543),DRSC00604,,1986,5025,848,2026
GILT1 (GeneID 41650),DRSC16565,,10352,,2685,
CG15269 (GeneID 34887),DRSC01942,,2461,4026,848,1595
CG13005 (GeneID 32670),DRSC19524,,22352,,8268,
CG30289 (GeneID 246532),DRSC03870,,16258,,8443,
CG1607 (GeneID 43707),DRSC15130,,2897,5960,1330,2387
CG43795 (GeneID 5740629),DRSC04192,,2120,8625,739,3419
CG43795 (GeneID 5740629),DRSC04193,,4352,11321,1287,5509
CG43795 (GeneID 5740629),DRSC04194,,4765,8004,1200,3419
CG43795 (GeneID 5740629),DRSC04309,,2509,8229,796,2776
CG43795 (GeneID 5740629),DRSC04310,,2957,7981,681,1789
CG43795 (GeneID 5740629),DRSC04497,,1827,6274,496,1936
CG43795 (GeneID 5740629),DRSC22826,,8.21e5,9.53e5,2.91e5,3.65e5
eIF2D (GeneID 64874),DRSC13916,,3400,,1842,
ppk13 (GeneID 3346226),DRSC02382,,2663,5811,688,2301
RASSF8 (GeneID 43096),DRSC15707,,2362,8811,886,2912
CG10280 (GeneID 40740),DRSC12133,,13136,,2796,
sty (GeneID 38424),DRSC08737,,11217,,5008,
CG7742 (GeneID 33750),DRSC03066,,5336,,2787,
msd1 (GeneID 38155),DRSC08383,,3672,,1832,
CG15800 (GeneID 37763),DRSC04271,,2021,8304,647,2288
CG11035 (GeneID 40953),DRSC14287,,8164,,3043,

No new results follow: 11 of the entries above.
Gene,DRSC id,"reporter change call, replicate 1","firefly reporter light, replicate 1","firefly reporter light, replicate 2","Renilla control light, replicate 1","Renilla control light, replicate 2"
CG43795 (GeneID 5740629),DRSC04192,,2120,8625,739,3419
CG43795 (GeneID 5740629),DRSC04193,,4352,11321,1287,5509
CG43795 (GeneID 5740629),DRSC04194,,4765,8004,1200,3419
CG43795 (GeneID 5740629),DRSC04309,,2509,8229,796,2776
CG43795 (GeneID 5740629),DRSC04310,,2957,7981,681,1789
CG43795 (GeneID 5740629),DRSC04497,,1827,6274,496,1936
CG43795 (GeneID 5740629),DRSC22826,,8.21e5,9.53e5,2.91e5,3.65e5
eIF2D (GeneID 64874),DRSC13916,,3400,,1842,
ppk13 (GeneID 3346226),DRSC02382,,2663,5811,688,2301
RASSF8 (GeneID 43096),DRSC15707,,2362,8811,886,2912
CG10280 (GeneID 40740),DRSC12133,,13136,,2796,
